The supplement of paper PMC4371806
Whole data set: some 2,300 compounds, median “plate-normalized OD600 growth (mean of duplicates)” near 0.29, cut for the lowest 2% near 0.22. The list shows a part of the results.

Tested on: Escherichia coli BW25113
Assay: plate-normalized OD600 growth (mean of duplicates) (OD600 (normalized)); higher = more growth (less inhibition)
Settings: 10 µM
Protocol: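 E. coli BW25113 in LB (100 µl, 96-well, no shaking) was exposed to 10 µM of each compound from a ~30,000-member library and grown at 37°C for 24 h or 15°C for 48 h, in duplicate. Growth was read as OD600 and the duplicate ODs were normalized across screening plates to correct plate-to-plate variation. Hits were >3σ below the mean OD600 at 15°C and <2σ below the mean at 37°C.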

| Compound | plate-normalized OD600 growth (temperature: 15°C, 48 h) | plate-normalized OD600 growth (temperature: 37°C, 24 h) |
| --- | --- | --- |
| CCCCOc1ccc(C(CC(=O)c2ccc(OC)cc2)Nc2ccc(Br)cc2)cc1 (centres undefined) | 0.245 | 0.61 |
| O=C(OCc1ccccc1)c1cccc(-c2nnn(Cc3ccccc3)n2)c1 | 0.252 | 0.606 |
| CCCc1ccc(OCC(=O)NNC(=S)Nc2ccccc2)cc1 | 0.244 | 0.618 |
| COc1ccc(C2NC(=O)C(=O)C2=C(O)c2ccc(C)cc2)cc1 (centres undefined) | 0.252 | 0.644 |
| O=[N+]([O-])c1ccc(C2=Nn3c(nnc3C(F)(F)F)SC2)cc1 | 0.258 | 0.621 |
| CCN(CC)c1ccc(/C=C(/NC(=O)c2ccccc2)C(=O)N/N=C/c2c(C)cc(O)c(C)c2O)cc1 | 0.23 | 0.599 |
| CC(C)(Oc1ccccc1Cl)C(=O)Nc1ccc(Cc2ccncc2)cc1 | 0.242 | 0.606 |
| O=C(Oc1ccc(N(C(=O)c2ccccc2)S(=O)(=O)c2cccs2)cc1)c1ccccc1 | 0.225 | 0.622 |
| O=C(c1cc(Br)ccc1NS(=O)(=O)c1ccc(Cl)cc1)N1CCN(S(=O)(=O)c2ccc(Cl)cc2)CC1 | 0.26 | 0.613 |
| O=C(Cn1nnc(-c2ccc3c(c2)OCO3)n1)N1CCOCC1 | 0.253 | 0.625 |
| Nc1nonc1-c1noc(COc2c(F)c(F)cc(F)c2F)n1 | 0.234 | 0.615 |
| COc1ccc(Nc2nc(N/N=C/c3ccc(-c4cccc(C(=O)O)c4)o3)nc(Nc3ccccc3)n2)cc1 | 0.226 | 0.634 |
| COC(=O)C[n+]1ccn2c(C)ccc2c1C | 0.242 | 0.619 |
| CCOC(=O)C(=CNNC(=O)c1ccccc1-n1cccc1)C(=O)OCC | 0.213 | 0.618 |
| COc1ccc(S(=O)(=O)CCc2ccncc2)cc1 | 0.236 | 0.614 |
| Cc1cc(C)c2c(-n3cccc3)c(C(=O)NCCO)sc2n1 | 0.254 | 0.609 |
| CCn1c(C)c(C(C)=O)c(N2CCC(C(N)=O)CC2)nc1=S | 0.232 | 0.607 |
| Nc1nnnn1/N=C/c1ccc(-c2cccc(Cl)c2Cl)o1 | 0.247 | 0.601 |
| C=Cn1c(C(=O)O)ccc1-c1ccc(C)cc1 | 0.254 | 0.645 |
| CCOc1cccc(N2C(=O)CC(NNC(=O)c3ccccc3)C2=O)c1 (centres undefined) | 0.246 | 0.603 |
| CC(C)(Cc1ccc(O)cc1)NC[C@H](O)c1cc(O[C@@H]2O[C@H](C(=O)O)[C@@H](O)[C@H](O)[C@H]2O)cc2c1OCC(=O)N2 | 0.247 | 0.604 |
| CC(C)(C)OC(=O)N[C@H](C#N)Cc1ccccc1 | 0.239 | 0.619 |
| CC1SC2(C(=O)Nc3ccccc32)N(c2ccc(F)cc2)C1=O (centres undefined) | 0.224 | 0.649 |

| Compound | plate-normalized OD600 growth (temperature: 15°C, 48 h) | plate-normalized OD600 growth (temperature: 37°C, 24 h) |
| --- | --- | --- |
| COC(=O)[C@@H]1C(c2ccccc2)=NN(c2ccccc2)[C@@]1(C(=O)OC)C(C)C | 0.247 | 0.611 |
| Cc1cccc(O)c1N=Cc1cc(C(=O)O)ccc1O | 0.247 | 0.638 |
| N#CC1=C2Sc3ccccc3N2CC(C#N)(c2nc3ccccc3s2)C1 (centres undefined) | 0.241 | 0.612 |
| c1ccc2c(c1)CCC(Cc1ccc3ccccc3c1)C2 (centres undefined) | 0.223 | 0.601 |
| S=C1NC2(CCCCCC2)Cc2ccccc21 | 0.252 | 0.616 |
| CCC/C=N/NC(=O)c1ccc(N2CCCC2=O)cc1 | 0.26 | 0.647 |
| CC(=O)N(CC(=O)Nc1ccc(C)cc1)c1ccccc1 | 0.214 | 0.646 |
| Cc1onc(-c2c(F)cccc2Cl)c1C(=O)Oc1ccccc1 | 0.273 | 0.617 |
| CC#CCn1c(N2CCCC(=O)C2)nc2c1c(=O)n(Cc1nc(C)c3ccccc3n1)c(=O)n2C | 0.254 | 0.628 |
| COc1ccc(NC(=O)C(C)c2ccc(CC(C)C)cc2)cc1 (centres undefined) | 0.243 | 0.592 |
| CCOC(=O)COc1nc(-c2ccccc2)cc(-c2ccccc2)c1C#N | 0.251 | 0.629 |
| C=C(C)C(=O)OCc1ccc2ccc3cccc4ccc1c2c34 | 0.25 | 0.643 |
| COc1ccccc1N(CN1C(=O)CCC1=O)C(C)=O | 0.241 | 0.624 |
| Cc1ccc(S(=O)(=O)N(CCc2ccccc2)CC(=O)N/N=C/c2ccccc2OCc2ccccc2)cc1 | 0.236 | 0.607 |
| Cc1cccc(C2(c3cccc(C)c3)CC2C(=O)Nc2ccc(C#N)cc2)c1 (centres undefined) | 0.232 | 0.597 |
| O=C(NCC1CCCO1)C(=O)N/N=C/c1cccc(O)c1 (centres undefined) | 0.257 | 0.636 |
| COc1ccc(C(NC(=O)Cc2ccccc2)NC(=O)Cc2ccccc2)cc1OC | 0.238 | 0.617 |
| COC1(c2ccccc2)CC1C(=O)N/N=C/c1ccc(N(C)C)cc1 (centres undefined) | 0.229 | 0.626 |
| O=S(=O)(NC(c1ccc(I)cc1)C(Cl)(Cl)Cl)c1ccccc1 (centres undefined) | 0.23 | 0.632 |
| Cc1ccc(C)c(NC(=O)C(=O)NCCCn2ccnc2)c1 | 0.256 | 0.611 |
| O=C(CSc1nc2ccccc2s1)Nc1cccn2cc(-c3ccccc3)nc12 | 0.263 | 0.614 |
| CC1(CC(=O)N/N=C/c2ccc(Cl)c([N+](=O)[O-])c2)OCCO1 | 0.247 | 0.618 |
| COc1ccc(C)cc1NC(=O)C/C(C)=N/NC(=O)COc1cccc(C)c1 | 0.233 | 0.62 |

| Compound | plate-normalized OD600 growth (temperature: 15°C, 48 h) | plate-normalized OD600 growth (temperature: 37°C, 24 h) |
| --- | --- | --- |
| CC(C)(O)C#Cc1ccc(/C=N\O)cc1 | 0.251 | 0.627 |
| CC(=O)N(/C=C/C=C/C=C1\Sc2ccccc2C1=O)c1ccccc1 | 0.247 | 0.611 |
| COc1cc(/C=C(\C#N)c2nn(CCO)c(N)c2C#N)ccc1OCc1ccc(C)cc1 | 0.244 | 0.601 |
| O=C1N/C(=N\N=C\c2ccc(Cl)cc2)S/C1=C/c1ccc(-c2ccc(C(=O)O)c(Cl)c2)o1 | 0.256 | 0.616 |
| COc1cc(/C=C2\C(=N)N3N=C(C(F)(F)F)SC3=NC2=O)cc(Cl)c1OCc1ccccc1 | 0.246 | 0.626 |
| Cn1c(=O)[nH]c(=O)c2c1nc(SCc1ccccc1)n2CCCc1ccccc1 | 0.266 | 0.62 |
| Cc1ccc(-n2[nH]c(C)c(C=Nc3cccc(N=Cc4c(C)[nH]n(-c5ccc(C)cc5)c4=O)n3)c2=O)cc1 | 0.249 | 0.626 |
| O=C1CC(C(F)(F)C(F)(F)C(F)(F)C(F)F)=Nc2ccccc2N1 | 0.25 | 0.623 |
| COc1ccc2c(O[C@@H]3C[C@H]4C(=O)N[C@]5(C(=O)NS(=O)(=O)C6CC6)C[C@H]5/C=C\CCCCN(C)C(=O)[C@@H]4C3)cc(-c3nc(C(C)C)cs3)nc2c1C | 0.262 | 0.615 |
| N#Cc1c(N)c(S(=O)(=O)c2ccccc2)coc1=N | 0.249 | 0.604 |
| O=S(=O)(N=C(c1ccccc1)N1CCCCC1)c1ccccc1 | 0.232 | 0.621 |
| O=C(CSc1nc2ccccc2[nH]1)Nc1nc2ccccc2s1 | 0.244 | 0.604 |
| COc1ccc(/C=N/Nc2nnnn2-c2cccc3ccccc23)cc1OC | 0.253 | 0.627 |
| Cc1cc(C(C)(C)C)oc1C(=O)N1CCNCC1 | 0.251 | 0.611 |
| Cc1cc(=O)n(-c2ccccc2)n1CNc1ccc(Cl)cc1Cl | 0.246 | 0.594 |
| CCN(CC)c1ccc(NC(=O)c2c(F)cccc2F)c(N(CC)CC)n1 | 0.235 | 0.602 |
| CSCCC(NC(=O)c1ccccc1)C(=O)OCC(=O)Nc1ccc(C)c(Cl)c1 (centres undefined) | 0.246 | 0.612 |
| Cc1cc2c(cc1C)CN(c1ccc(C(=O)N/N=C/c3ccccc3O)cc1)C2 | 0.25 | 0.63 |
| CCOC(=O)c1c(-c2ccc(F)cc2)csc1N | 0.24 | 0.609 |
| CC1(C)CC(=O)C2=C(C1)N(c1cccc([N+](=O)[O-])c1)C(N)=C(C#N)C2c1cccnc1 (centres undefined) | 0.256 | 0.613 |
| O=S1(=O)C=C(N2CCOCC2)c2ccccc21 | 0.241 | 0.624 |
| Cc1cccc(Nc2cc(C)nc3ccccc23)c1 | 0.256 | 0.617 |
| NC(N)=NC(N)=Nc1ccccc1C(F)(F)F | 0.243 | 0.604 |

| Compound | plate-normalized OD600 growth (temperature: 15°C, 48 h) | plate-normalized OD600 growth (temperature: 37°C, 24 h) |
| --- | --- | --- |
| CCSc1nc(NC(C)=O)nn1C(C)=O | 0.249 | 0.623 |
| Fc1cnc(N/N=C/c2ccc(Sc3ccccc3)o2)nc1N1CCOCC1 | 0.252 | 0.611 |
| COC(=O)C(NS(=O)(=O)c1ccccc1)C(C)C (centres undefined) | 0.232 | 0.636 |
| CCOC(=O)c1cnn(-c2ccc(NS(=O)(=O)c3ccc(Cl)cc3)cc2)c1C(F)(F)F | 0.233 | 0.609 |
| O=[N+]([O-])c1cnc(Sc2n[nH]c(-c3cccs3)n2)s1 | 0.225 | 0.607 |
| CC(=O)N1c2ccccc2NC2=C(C(=O)CC(c3ccc(Cl)c(Cl)c3)C2)C1c1cccnc1 (centres undefined) | 0.245 | 0.615 |
| CC1(O)N(CCN)C(=O)OC12CCCCC2 (centres undefined) | 0.269 | 0.626 |
| O=C(O)C1C2C=CC(C2)C1C(=O)NCCc1ccncc1 (centres undefined) | 0.242 | 0.651 |
| COc1ccc2nc(NC(=O)c3cc4ccccc4o3)sc2c1 | 0.259 | 0.62 |
| Cc1cc(S(=O)(=O)NCCNc2nccc(C(F)(F)F)n2)c(C)cc1Cl | 0.222 | 0.587 |
| NC1=Nc2nc(Nc3ccccc3)sc2/C(=C/c2ccc(O)cc2)N1 | 0.248 | 0.628 |
| CN1N=C(SCc2ccc(Cl)cc2Cl)Sc2c1cnn(C)c2=O | 0.25 | 0.591 |
| CCCCCCNC(=O)NCCCCCC | 0.278 | 0.617 |
| N#C/C(=C\c1ccccc1Cl)c1nc2ccccc2[nH]1 | 0.26 | 0.624 |
| COc1ccc(-c2cn3c4c(=O)n(C)c(=O)n(C)c4nc3n2CCCCO)cc1 | 0.239 | 0.619 |
| C/C(=N/NC(=O)COc1cccc(Cl)c1)c1ccc(Cl)cc1 | 0.248 | 0.631 |
| Cc1nc2sc(C(=O)c3ccc(Cl)cc3)c(N)c2c(C)c1C(=O)Nc1ccccc1 | 0.233 | 0.604 |
| CCOC(=O)CC(NC(=O)c1cc(OC)c(OC)c(OC)c1)c1ccc(C)cc1 (centres undefined) | 0.247 | 0.627 |
| Cc1ccc(-c2nc(SCC(=O)C(F)(F)F)c(C#N)cc2C)cc1 | 0.261 | 0.623 |
| O=C(O)c1ccc(S(=O)(=O)c2ccc3c(c2)C(=O)N(c2ccccn2)C3=O)cc1 | 0.221 | 0.618 |
| O=C(CN1C(=O)c2ccccc2C1=O)Oc1ccc2ccccc2c1 | 0.244 | 0.599 |
| Cc1nc(N)ncc1Sc1ccccc1 | 0.259 | 0.602 |
| O=C(O)CCC(=O)N1CC(=O)Nc2ccccc21 | 0.222 | 0.624 |

4 records drawn at random from the list so far:

| Compound | plate-normalized OD600 growth (temperature: 15°C, 48 h) | plate-normalized OD600 growth (temperature: 37°C, 24 h) |
| --- | --- | --- |
| COc1ccc2nc(NC(=O)c3cc4ccccc4o3)sc2c1 | 0.259 | 0.62 |
| CCN(CC)c1ccc(/C=C(/NC(=O)c2ccccc2)C(=O)N/N=C/c2c(C)cc(O)c(C)c2O)cc1 | 0.23 | 0.599 |
| COc1cc(/C=C(\C#N)c2nn(CCO)c(N)c2C#N)ccc1OCc1ccc(C)cc1 | 0.244 | 0.601 |
| CCCCCCNC(=O)NCCCCCC | 0.278 | 0.617 |
